The text below walks through data of PubChem BioAssay AID694 (Emory University Molecular Libraries Screening Center, 2007).

By UniProt entry, the sequences of proteins in these tests, tags left out.
UniProt P03372, whole entry, looked up: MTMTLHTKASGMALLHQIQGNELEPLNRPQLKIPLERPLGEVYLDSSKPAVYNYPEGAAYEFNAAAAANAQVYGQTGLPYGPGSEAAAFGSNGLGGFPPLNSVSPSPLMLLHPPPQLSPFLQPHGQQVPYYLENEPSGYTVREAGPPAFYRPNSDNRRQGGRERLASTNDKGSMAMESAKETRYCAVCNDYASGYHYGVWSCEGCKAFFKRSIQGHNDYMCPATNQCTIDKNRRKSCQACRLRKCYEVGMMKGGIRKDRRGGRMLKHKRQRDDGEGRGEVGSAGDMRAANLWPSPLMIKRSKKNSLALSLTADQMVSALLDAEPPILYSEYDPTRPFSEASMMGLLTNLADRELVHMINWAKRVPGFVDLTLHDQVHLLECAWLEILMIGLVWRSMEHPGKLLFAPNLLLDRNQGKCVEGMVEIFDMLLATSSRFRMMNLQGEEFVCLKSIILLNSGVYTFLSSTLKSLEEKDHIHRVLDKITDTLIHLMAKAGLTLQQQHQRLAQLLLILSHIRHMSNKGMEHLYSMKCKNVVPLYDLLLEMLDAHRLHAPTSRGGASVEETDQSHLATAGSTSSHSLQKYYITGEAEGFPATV

Values joined by “and” are separate entries in the source; they are usually repeats but may differ in a detail not shown here. Identical values can stand only once. The list shows a part of the results. Further columns of the screen follow, without active or inactive calls.

This experiment deals with Estrogen receptor (Homo sapiens) (UniProt P03372). Put plainly: ERα coactivator peptide binding inhibitors, primary screen, biochemical, LOPAC library, TR-FRET (AID 694).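 Further: receptor was agonist-bound with estradiol present during the assay.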 The note with it: TR-FRET ERalpha-coactivator peptide binding, at 15 µM, stronger effect = higher value. (In general: In TR-FRET formats the signal depends on donor and acceptor labels being close together.)
What is called inhibition is the relative decrease from the control value, in per cent. As for `CN(C)CCC(c1ccc(Br)cc1)c1ccccn1` (stereo unspecified), the inhibition is -2.7%.
As for `C[C@]12CCC(=O)C=C1CC[C@@H]1[C@@H]2CC[C@@]2(C)[C@H]1CC[C@]2(O)C(=O)CO`, the inhibition is 4.41%.
For the compound `CC(=O)N[C@H](C(=O)O)C(C)(C)SN=O`, the inhibition came to 0.14%.
For the compound `CC(C)NCC(O)COc1ccc(CC(N)=O)cc1` (stereo unspecified), the inhibition is -8.18%.
On to `CC1=NS(=O)(=O)c2cc(Cl)ccc2N1`, for which the inhibition was -6.11%.
The value for `C[C@@]1(C2CCCC2)Cc2cc(OCC(=O)O)c(Cl)c(Cl)c2C1=O` was 1.68%.
For `Oc1cc2c(cc1O)C(c1ccccc1)CNCC2` (stereo unspecified), the inhibition is 6.19%.
For the compound `CN1CCN(CC(=O)N2c3ccccc3C(=O)Nc3cccnc32)CC1`, the inhibition was -3.99%.
In the case of `O=C(O)CCCC[C@@H]1CCSS1`, the inhibition was -6.23%.
For `O=C1Nc2ccc(I)cc2/C1=C/c1cc(Br)c(O)c(Br)c1`, the inhibition stood at 40.6%.
For the compound `CNC(=O)[C@H]1O[C@@H](n2cnc3c(NCc4ccc(I)cc4)nc(Cl)nc32)[C@H](O)[C@@H]1O`, the inhibition is -3.68%.
In the case of `CN(C)c1nc(N)c(C(=O)N=C(N)N)nc1Cl`, the inhibition is -2.78%.
For the compound `CN1C2CCC1CC(NC(=O)c1nn(C)c3ccccc13)C2` (stereo unspecified), the inhibition is 2.78%.
As to `CN(C)CC[C@@H](c1ccc(Br)cc1)c1ccccn1`, the inhibition came to 1.77%.
`C=C(C)C1CC=C(C(=O)O)CC1` (stereo unspecified): the inhibition is 0.63%.
Consider `NCCCCN`, for which the inhibition was -2.37%.
With `CCC1(O)CC2CN(CCc3c([nH]c4ccccc34)[C@@](C(=O)OC)(c3cc4c(cc3OC)N(C=O)C3[C@]45CCN4CC=C[C@@](CC)([C@@H](OC(C)=O)[C@]3(O)C(=O)OC)[C@H]45)C2)C1` (stereo partly specified), the inhibition is -5.2%.
`Oc1ccc(C2CNCc3sccc32)cc1O` (stereo unspecified): the inhibition is -1.73%.
The value for `N=C(N)SCCc1ccc(CCSC(=N)N)cc1` was -2.83%; that for `CC1=C(C(=O)O)N2C(=O)[C@@H](NC(=O)C(N)C3=CCC=CC3)[C@H]2SC1` (stereo partly specified) was 1.8%; that for `COc1ccc2c(c1)c(CC(=O)O)c(C)n2Cc1ccc(Cl)cc1` was 2.9%.
In the case of `CN1C(C(=O)Nc2ccccn2)=C(O)c2ccccc2S1(=O)=O`, the inhibition is 1.67%.
As to `COCCOC(=O)C1=C(C)NC(C)=C(C(=O)OC(C)C)C1c1cccc([N+](=O)[O-])c1` (stereo unspecified), the inhibition was -1.87%.
Regarding `CN1CCc2cc(NC(=O)Nc3cccnc3)ccc21`, the inhibition is -3.39%.
For `CC(C[N+](C)(C)C)OC(N)=O` (stereo unspecified), the inhibition turned out to be 3.27%.
On to `CCCCC1C(=O)N(c2ccccc2)N(c2ccccc2)C1=O`, for which the inhibition is 5.28%.
As to `N=C(N)SCCN`, the inhibition was 1.27%.
With `c1ccc(CN2CCC3(CCCc4ccccc43)CC2)cc1`, the inhibition amounted to 2.55%.
For the compound `CC1(C)C(=O)N(CCN2CCC(C(=O)c3ccc(F)cc3)CC2)c2ccccc21`, the inhibition came to 6.15%.
For `OCC1NC[C@@H](O)C(O)[C@@H]1O` (stereo partly specified), the inhibition was 1.79%.
For the compound `CNC(=O)[C@H]1O[C@@H](n2cnc3c(NCc4cccc(I)c4)ncnc32)C(O)[C@H]1O` (stereo partly specified), the inhibition was 0.33%.
`Cc1cccc(C2CN(C)CCc3c2cc(O)c(O)c3Cl)c1` (stereo unspecified): the inhibition is 3.74%.
On to `CCCn1c(=O)c2[nH]c(-c3ccc(OCC(=O)NCCN)cc3)nc2n(CCC)c1=O`, for which the inhibition came out at 6.69%.
As for `O=C(OCCN1CCCCC1)c1c[nH]c2ccccc12`, the inhibition is -1.45%.
With `[Li+]`, the inhibition was 15.6%.
For `CCSC(N)=Nc1ccc(C(F)(F)F)cc1`, the inhibition is 0.15%.
For the compound `OCc1ccc(-c2nn(Cc3ccccc3)c3ccccc23)o1`, the inhibition is 2.68%.
`O=C(O)CCC/C=C\C[C@@H]1[C@@H](/C=C/[C@H](O)C2Cc3ccccc3C2)[C@@H](F)C[C@@H]1O`: the inhibition was -5.09%.
On to `CC(C)(Oc1ccc(C2CC2(Cl)Cl)cc1)C(=O)O` (stereo unspecified), for which the inhibition was -2.45%.
`Nc1nc(Cl)nc2c1ncn2[C@@H]1O[C@H](CO)[C@H](O)C1O` (stereo partly specified): the inhibition is 8.33%.
Regarding `CC(C)N(CCC(=O)c1ccc2ccccc2c1)Cc1ccccc1`, the inhibition turned out to be 1.45%.
As to `C[C@H]1c2cccc(O)c2C(O)=C2C(=O)[C@]3(O)C(O)=C(C(N)=O)C(=O)[C@@H](N(C)C)[C@@H]3[C@@H](O)[C@@H]21`, the inhibition stood at 4.58%.
The value for `CCCCC[C@H](CC(=O)NO)C(=O)N[C@H](C(=O)N1CCC[C@H]1CO)C(C)C` was -6.87%; that for `CC(=O)OC(C)C[N+](C)(C)C` (stereo unspecified) was -1.37%.
As for `CN(C)c1ccc(/C=C2\C(=O)Nc3ccccc32)cc1`, the inhibition was -7.53%.
The value for `CNCCC(Oc1ccccc1C)c1ccccc1` (stereo unspecified) was -1.6%; that for `COC1=C(OC)C(=O)c2ccccc2C1=O` was 6.29%.
The value for `Cn1cnc2c(NC3CCCC3)ncnc21` was 3.21%; that for `Clc1ccccc1C(c1ccccc1)(c1ccccc1)n1ccnc1` was 7.99%; that for `CCCC(C(=O)OCCN(CC)CC)(c1ccccc1)c1ccccc1` was 3.95%.
Take `COc1cc(CC(=O)O)ccc1O`: the inhibition was found to be 6.61%.
In the case of `O=c1[nH]c2cc(Cl)ccc2c(O)c1-c1ccc(Oc2ccccc2)cc1`, the inhibition turned out to be 0.86%.
Take `CN(C)CCCC1(c2ccc(F)cc2)OCc2cc(C#N)ccc21` (stereo unspecified): the inhibition was -1.19%.
`O=S(=O)(NCCNC/C=C/c1ccc(Br)cc1)c1cccc2cnccc12`: the inhibition is -1.9%.
`C[C@H](NC(=O)/C(C#N)=C/c1ccc(O)c(O)c1)c1ccccc1`: the inhibition was 5.97%.
The figure for `CC(C)(C)c1cc(/C=C(\C#N)C(N)=S)cc(C(C)(C)C)c1O` is 3.07%; for `C[C@H](O)C(=O)C1=Nc2c(nc(N)[nH]c2=O)NC1` it is -6.12%.
With `COc1ccccc1N1CCN(CCN2C(=O)CC3(CCCC3)CC2=O)CC1`, the inhibition is -2.59%.
As for `O=C(O)c1ccccc1Nc1cccc(OCc2ccc3ccccc3n2)c1`, the inhibition turned out to be 0.57%.
On to `CC(C)(C)NCC(O)c1ccc(O)c(CO)c1` (stereo unspecified), for which the inhibition was 6.99% and 3.63%.
As to `CCCOC(=O)c1c(-c2ccccc2)nc(CC)c(C(=O)SCC)c1CCC`, the inhibition was found to be 2.08%.
